Source: PubChem BioAssay AID1487 (National Center for Advancing Translational Sciences (NCATS), 2009)
This is one part of the list. Further columns of the screen follow, without active or inactive calls. Most of these compounds were active or inconclusive in the main read-out, so they are no random draw. Potencies come from curve fits of mixed quality, noted in brackets.

Test: qHTS Assay for Modulators of Lamin A Splicing
Settings: HeLa LMNA splicing GFP/RFP minigene ratio, 48 h
Summary of the method: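 Read-out is the ratio of GFP to DsRed2 object intensity, acquired by 488 nm laser-scanning cytometry on HeLa lamin A-EGFP minigene reporter cells. Compound incubation 48 hrs at 37 °C in Opti-MEM with 2% FBS; DMSO 0.5% final.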

[1] = measured here: RFP viability control channel
[2] = measured here: GFP splicing reporter channel

SMILES	AC50 [1]	AC50 [2]
O=C(c1noc2c1CCc1ccccc1-2)N1CCc2ccccc2C1	31.6 µM [rising, single point]	–
O=C(CSc1nnc(Cc2cccs2)n1Cc1ccco1)Nc1ccc(Cl)cc1Cl	35.5 µM [rising, single point]	15.8 µM [rising, single point]
COC(=O)c1cc(OC)c(OC)cc1NC(=O)Nc1cccc(C(C)=O)c1	0.00316 µM [falling, full curve, poor fit]	–
Cc1cc(OCc2ccc(C(=O)NN=C3CCCC3)cc2)ccc1Cl	–	20 µM [rising, partial curve, poor fit]
COc1ccc(OCc2ccc(-c3nc(C#N)c(NCc4ccccc4)o3)o2)cc1	–	2.24 µM [rising, single point]
N#CCC(=O)Nc1ccc(C(=O)OCC(=O)N(Cc2ccccc2)C2CCS(=O)(=O)C2)cc1 (stereo not given)	35.5 µM [rising, single point]	22.4 µM [rising, single point]
CCn1c(SCC#N)nc2c(c1=O)C1(CCCC1)Cc1ccccc1-2	35.5 µM [rising, single point]	35.5 µM [rising, single point]
CCCC(=O)N(CCc1ccccc1)Cc1nc2ccccc2c(=O)[nH]1	17.8 µM [rising, single point]	–
CCc1ccc(NCCC(=O)c2ccc(Br)cc2)cc1	12.6 µM [rising, single point]	14.1 µM [rising, single point]
O=S(=O)(c1ccccc1Oc1ccc(Cl)cc1Cl)N1CCCCC1	0.0316 µM [falling, full curve, poor fit]	0.0282 µM [falling, full curve, poor fit]
CCCOc1c(OC)cccc1C1CC(=O)Nc2cc(OC)c(OC)c(OC)c21 (stereo not given)	12.6 µM [rising, single point]	–
O=C(Nc1ccc(S(=O)(=O)Nc2ccccc2)cc1)C1COc2ccccc2O1 (stereo not given)	35.5 µM [falling, single point]	35.5 µM [falling, single point]
Cc1ccc(C)c(NC(=O)CCC(=O)N/N=C/c2cc([N+](=O)[O-])ccc2O)c1	–	15.8 µM [falling, partial curve, poor fit]
O=C(NCc1cccc(F)c1)C1CCCN(C(=O)N2CCOc3ccccc32)C1 (stereo not given)	–	5.62 µM [falling, partial curve]
O=C(c1ccc(Br)o1)N1CCN(c2ccc3nnc(-c4ccccc4)n3n2)CC1	17.8 µM [rising, partial curve, poor fit]	–
CN(C)c1ccc(O)c2c1CC1CC3[C@@H](N(C)C)C(=O)C(C(N)=O)=C(O)[C@]3(O)C(=O)C1=C2O (stereo not given in full)	15.8 µM [rising, partial curve, poor fit]	4.47 µM [rising, partial curve]
O=C(N/N=C/c1ccc2c(c1)OCO2)c1cc(-c2ccncc2)nc2ccccc12	–	2.82 µM [rising, full curve]
Cc1ccc(COCCN2CCN(S(=O)(=O)c3ccc(C)cc3)CCC2=O)cc1	15.8 µM [rising, partial curve]	10 µM [rising, partial curve, poor fit]
Cc1ccc(NC(=S)/N=C(\N)Nc2nc(C)c3cc(C)ccc3n2)c(C)c1	10 µM [rising, partial curve]	–
CCCCNC(=O)CSc1nnc(-c2c[nH]c3ccccc23)n1CC1CCCO1 (stereo not given)	3.55 µM [falling, single point]	2.24 µM [falling, partial curve, poor fit]
Cc1c(C(=O)O)sc2ncn(C)c(=O)c12	35.5 µM [rising, single point]	–
Cc1cc(C)cc(NC(=S)/N=C(\N)Nc2nc(C)c3ccccc3n2)c1	35.5 µM [rising, single point]	–
CCOC(=O)C1CCN(C(c2ccc(SC)cc2)c2c(O)cc(C)n(Cc3ccco3)c2=O)CC1 (stereo not given)	–	3.98 µM [falling, full curve, poor fit]
COc1ccc(/C=C/c2nnc(NC(=O)c3ccco3)s2)cc1	–	0.0447 µM [falling, full curve, poor fit]
Nc1cc(-c2cccc(Br)c2)nn1Cc1ccccc1	11.2 µM [rising, partial curve]	2.82 µM [rising, full curve, poor fit]
COc1ccc(CNC(=O)c2cccc(NC(=O)c3ccccc3)c2)cc1	2.82 µM [falling, full curve, poor fit]	7.94 µM [falling, partial curve]
COc1cc2c(cc1C1NC(=S)NC(C)=C1C(=O)N(C)C)CCCC2 (stereo not given)	15.8 µM [rising, partial curve, poor fit]	12.6 µM [rising, single point]

13 consecutive entries already listed:
SMILES	AC50 [1]	AC50 [2]
O=S(=O)(c1ccccc1Oc1ccc(Cl)cc1Cl)N1CCCCC1	0.0316 µM [falling, full curve, poor fit]	0.0282 µM [falling, full curve, poor fit]
CCCOc1c(OC)cccc1C1CC(=O)Nc2cc(OC)c(OC)c(OC)c21 (stereo not given)	12.6 µM [rising, single point]	–
O=C(Nc1ccc(S(=O)(=O)Nc2ccccc2)cc1)C1COc2ccccc2O1 (stereo not given)	35.5 µM [falling, single point]	35.5 µM [falling, single point]
Cc1ccc(C)c(NC(=O)CCC(=O)N/N=C/c2cc([N+](=O)[O-])ccc2O)c1	–	15.8 µM [falling, partial curve, poor fit]
O=C(NCc1cccc(F)c1)C1CCCN(C(=O)N2CCOc3ccccc32)C1 (stereo not given)	–	5.62 µM [falling, partial curve]
O=C(c1ccc(Br)o1)N1CCN(c2ccc3nnc(-c4ccccc4)n3n2)CC1	17.8 µM [rising, partial curve, poor fit]	–
CN(C)c1ccc(O)c2c1CC1CC3[C@@H](N(C)C)C(=O)C(C(N)=O)=C(O)[C@]3(O)C(=O)C1=C2O (stereo not given in full)	15.8 µM [rising, partial curve, poor fit]	4.47 µM [rising, partial curve]
O=C(N/N=C/c1ccc2c(c1)OCO2)c1cc(-c2ccncc2)nc2ccccc12	–	2.82 µM [rising, full curve]
Cc1ccc(COCCN2CCN(S(=O)(=O)c3ccc(C)cc3)CCC2=O)cc1	15.8 µM [rising, partial curve]	10 µM [rising, partial curve, poor fit]
Cc1ccc(NC(=S)/N=C(\N)Nc2nc(C)c3cc(C)ccc3n2)c(C)c1	10 µM [rising, partial curve]	–
CCCCNC(=O)CSc1nnc(-c2c[nH]c3ccccc23)n1CC1CCCO1 (stereo not given)	3.55 µM [falling, single point]	2.24 µM [falling, partial curve, poor fit]
Cc1c(C(=O)O)sc2ncn(C)c(=O)c12	35.5 µM [rising, single point]	–
Cc1cc(C)cc(NC(=S)/N=C(\N)Nc2nc(C)c3ccccc3n2)c1	35.5 µM [rising, single point]	–

Following part.

SMILES	AC50 [1]	AC50 [2]
COc1ccc2[nH]c(=O)c(CN(Cc3cccs3)S(=O)(=O)c3c(C)ccc4nsnc34)cc2c1	2.82 µM [rising, full curve]	–
COc1ccc(OC)c(NCc2cccn2-c2nnc(N3CCCCC3)s2)c1	31.6 µM [rising, single point]	–
Cc1ccc(C)c(S(=O)(=O)c2cn(C)c3cc(N4CCCCC4C)c(F)cc3c2=O)c1 (stereo not given)	1.12 µM [rising, full curve]	–
CCN(CC)S(=O)(=O)c1cc(NS(=O)(=O)c2cc(Cl)ccc2Cl)ccc1C	22.4 µM [rising, single point]	–
CCOC(=O)C(=O)N1CCN(c2ccccc2OC)CC1	–	6.31 µM [rising, partial curve, poor fit]
Cn1c(=O)c2c(nc(Br)n2CC(=O)C23CC4CC(CC(C4)C2)C3)n(C)c1=O	31.6 µM [rising, single point]	–
CC(C)(Oc1ccc(CCNC(=O)c2ccc(Cl)cc2)cc1)C(=O)O	–	0.000355 µM [rising, full curve, poor fit]
c1ccc(CC2=NCCN2)cc1	0.178 µM [falling, partial curve]	–
c1ccc(-c2cn3c(n2)-c2ccccc2C3)cc1	1.58 µM [rising, full curve, poor fit]	–
COc1cc2c(C(=O)O)c(C)n(CC(C)C)c2c2ccccc12	17.8 µM [rising, single point]	–
CC(=O)OC1CC2C(C)(C)C(O)CC[C@@]2(C)C2CC[C@@]3(C)C(c4ccoc4)OC(=O)C4OC43[C@]12C (stereo not given in full)	15.8 µM [falling, single point]	15.8 µM [falling, single point]
Clc1ccc(OCCSCc2nc3ccccc3[nH]2)cc1	22.4 µM [rising, partial curve]	22.4 µM [rising, single point]
COc1ccc(-n2c(SCC(=O)NC3CCCCC3)nc3ccsc3c2=O)cc1	1.41 µM [falling, partial curve, poor fit]	–
CCOc1ccc2ncc(S(=O)(=O)c3ccccc3)c(N3CCN(c4ccc(OC)cc4)CC3)c2c1	14.1 µM [rising, partial curve]	8.91 µM [rising, partial curve]
Cc1cc2oc(=O)cc(CN3CCN(C/C=C/c4ccccc4)CC3)c2cc1O	17.8 µM [rising, single point]	7.94 µM [rising, partial curve, poor fit]
CS(=O)(=O)N(CC(=O)N1CCN(c2cccc(Cl)c2)CC1)c1cccc(F)c1	15.8 µM [rising, single point]	–
CCc1ccc(CN(C)C(=O)CCc2nnc(CCc3cccc(OC)c3)o2)nc1	7.94 µM [falling, full curve, poor fit]	–
CC(=O)OCC1OC(n2cnc3c(Cl)nc(Cl)nc32)C(OC(C)=O)C1OC(C)=O (stereo not given)	25.1 µM [falling, single point]	17.8 µM [falling, partial curve]
Cc1cccc(Nc2nc(-c3cccs3)cs2)n1	15.8 µM [rising, single point]	–
CCOC(=O)C1(CC2CCCCO2)CCN(C(=O)Nc2ccccc2CC)CC1 (stereo not given)	–	0.282 µM [rising, partial curve]
Cc1ccc2sc(N3CCN(C(=O)CCS(=O)(=O)c4ccc(Cl)cc4)CC3)nc2c1C	0.0141 µM [rising, partial curve, poor fit]	–
O=C(NCCc1ccc(F)cc1)C(=O)NCC(c1cccs1)S(=O)(=O)c1ccc(F)cc1 (stereo not given)	7.08 µM [falling, full curve]	11.2 µM [falling, partial curve]
Nc1cc(-c2ccccc2)nn1S(=O)(=O)c1ccc(F)cc1	14.1 µM [rising, partial curve]	–
Cc1cccc(NC(=S)NNC(=O)c2cc3c(s2)CCC(C)C3)c1C (stereo not given)	17.8 µM [rising, single point]	15.8 µM [rising, single point]
Cc1ccnc(N2CCC(C(=O)Nc3ccc4c(c3)CCC4)CC2)n1	22.4 µM [rising, single point]	1.26 µM [rising, partial curve]
CCCN(CCC)C(=O)Cn1c(=O)n(-c2cccc(OC)c2)c(=O)c2c(C)c(C(=O)N(C)C)sc21	0.0224 µM [rising, full curve, poor fit]	–
COc1ccc2nc(N3C(=O)/C(=C/c4ccccc4)NC3=S)sc2c1	7.08 µM [rising, partial curve]	7.94 µM [rising, partial curve]
